# In PubChem BioAssay AID504834 (National Center for Advancing Translational Sciences (NCATS), 2011):
# Hit rate of the full screen: of about 320,000 compounds, about 22,000 (6.9%) were called active. The inconclusive results got no clear call from the source; some entries with a clear call stand among them for comparison. Calls come from the whole dose curve; as a rule, active = well fitted inhibition curve with a large enough effect; inconclusive = small, poorly fitted or top-dose-only effect, or another doubt; inactive = no such curve, though single readings can be large or run the other way. A potency beside an inconclusive call is a rough fit, not a confirmed value.
# Experiment: Primary qHTS for delayed death inhibitors of the malarial parasite plastid, 96 hour incubation
# Conditions: P. falciparum luciferase reporter growth; series mostly up to 28.7 µM; activity change, negative = inhibition: at the top concentration
# Procedure, shortened: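 96 h incubation, 37 C, 5% CO2, of luciferase-reporter P. falciparum-infected RBCs (2% hematocrit, 0.05% parasitemia final) with test compounds; endpoint luminescence.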
# % is set by controls: 0 for no effect and ±100 for the full control effect; potency is the fitted concentration of half-maximal effect.
Structure (SMILES),"activity change, negative = inhibition",Potency
CCc1ccc(N2CC(C(=O)N3CCN(c4ccccn4)CC3)CC2=O)cc1 (stereo not given),inactive: -1.58%,–
O=C(NCc1ccco1)/C(=C/c1ccc([N+](=O)[O-])cc1)NC(=O)c1ccco1,–,"inconclusive: 0.0029 µM [inhibitor, partial curve, poor fit]"
O=C(COC(=O)c1ccc(O)cc1O)Nc1ncc(Cl)cc1Cl,inactive: 3.43%,–
COc1cccc(COC(=O)Nc2ccccc2F)c1,inactive: 330%,–
Cc1nn2cnnc2c(C)c1Cc1ccc(Cl)cc1,–,"inconclusive: 18.5 µM [inhibitor, single point]"
c1ccc(C(c2ccccn2)c2ccccn2)cc1,–,"inconclusive: 13.1 µM [inhibitor, single point]"
CCCOc1cccc(C2C(C(=O)c3ccco3)=C(O)C(=O)N2CCCn2ccnc2)c1 (stereo not given),–,"inconclusive: 18.5 µM [inhibitor, single point]"
CSc1ccc(CN(C)Cc2nc3cc(C(F)(F)F)ccc3c(=O)[nH]2)cc1,–,"inconclusive: 0.233 µM [inhibitor, full curve, poor fit]"
Cc1cc(C(=O)NCc2ccccc2F)cs1,inactive: 6.29%,–
COc1cc(Cl)ccc1NC(=S)N(CCCN1CCOCC1)Cc1cn(C)c2ccccc12,inactive: -11.9%,–
CCOC(=O)CC1=C(C(=O)OCC)C(c2ccc(OC)c(OC)c2)C(C#N)=C(N)O1 (stereo not given),–,"inconclusive: 18.5 µM [inhibitor, single point]"
CC(C)(C)NC(=O)NC(=O)C[n+]1ccc(Cc2ccc([N+](=O)[O-])cc2)cc1,–,"inconclusive: 11.7 µM [inhibitor, partial curve, poor fit]"
CCOC(=O)C1=C(C)NC(=O)NC1c1ccc(OC(=O)c2ccco2)c(OC)c1 (stereo not given),–,"inconclusive: 13.1 µM [inhibitor, single point]"
Cc1cc2nc(/N=C(\N)NC(=O)N3c4ccccc4Sc4ccccc43)nc(C)c2cc1C,–,"inconclusive: 14.7 µM [inhibitor, single point]"
CCCOc1ccccc1NC(=O)Nc1ccccc1Cl,–,active: 8.28 µM
COC(=O)c1ccc(CN2CCN(CC=C(C)C)C(CCO)C2)cc1 (stereo not given),–,"inconclusive: 18.5 µM [inhibitor, single point]"
COc1ccc(CCNC(=O)[C@H](CC(C)C)NC(=O)N2CCn3c2nc2ccccc23)cc1OC,–,"inconclusive: 11.7 µM [inhibitor, single point]"
Cc1ccc(-c2cc(C(=O)NCc3cccs3)no2)cc1,inactive: 17.2%,–
Cc1cccc(NS(=O)(=O)c2ccc(C)c(NS(=O)(=O)c3cccs3)c2)c1,inactive: 30.9%,–
CC1CCCCN1CCNC(=O)c1ccc2c(c1)N(Cc1ccccc1)C(=O)c1ccccc1S2(=O)=O (stereo not given),–,"inconclusive: 10.4 µM [inhibitor, partial curve, poor fit]"
CCCCn1c(-c2cccc3ccccc23)nc2cc3[nH]c(=O)c(C(C)C)nc3cc21,–,"inconclusive: 16.5 µM [inhibitor, single point]"
Cc1cc(C(=O)NC2CCCN(Cc3ccc(Cl)cc3)C2)no1 (stereo not given),–,"inconclusive: 18.5 µM [inhibitor, single point]"
COC(=O)C1=C(C)N(Cc2ccc(OC)c(OC)c2)C(=O)C1,–,"inconclusive: 14.7 µM [inhibitor, partial curve, poor fit]"
O=C(N=Nc1c(O)n(Cc2ccccc2)c2ccccc12)c1ccc(O)cc1,–,active: 11.7 µM

Structure (SMILES),"activity change, negative = inhibition",Potency
COc1cccc(Nc2nnc(SCC(=O)Nc3sccc3C(N)=O)s2)c1,–,"inconclusive: 10.4 µM [inhibitor, single point]"
Cc1sc2nc(CN3CCCC3)nc(N3CCC(C(N)=O)CC3)c2c1C,–,active: 9.28 µM
O=C(CSc1nnc(-c2ccccc2)n1Cc1ccco1)Nc1ccc2c(c1)OCCO2,–,"inconclusive: 2.08 µM [inhibitor, single point]"
CC(=O)N/C(=C\c1ccccc1)C(=O)NCc1ccc2c(c1)OCO2,–,"inconclusive: 18.5 µM [inhibitor, single point]"
Cc1sc2nc(-c3ccccn3)[nH]c(=O)c2c1-c1ccccc1,–,"inconclusive: 0.738 µM [inhibitor, partial curve, poor fit]"
CCCCOc1ccc(C(O)(CCC)CCN2CCOCC2)cc1 (stereo not given),inactive: -1.9%,–
COc1ccc(S(=O)(=O)N2CCCCCC2)cc1C(=O)NCCc1ccccc1,–,"inconclusive: 13.1 µM [inhibitor, single point]"
Cc1cccc(NC(=O)c2ccc([N+](=O)[O-])cc2Cl)n1,–,"inconclusive: 0.928 µM [inhibitor, partial curve, poor fit]"
C=CCn1c(C)cc(C(=O)COC(=O)CNC(=O)c2ccccc2)c1C,inactive: 133%,–
Clc1ccc(-c2cc(CSc3ccccc3)on2)cc1,inactive: 214%,–
O=c1c2cc(NC(=S)NC3CCCCC3)ccc2nc2n1CCCCC2,–,"inconclusive: 11.7 µM [inhibitor, partial curve, poor fit]"
Cc1ccc(C)c(NC(=O)c2cc3ccccn3n2)c1,inactive: 32.9%,–
COc1cccc(Nc2ncnc3nc[nH]c23)c1,–,"inconclusive: 4.65 µM [inhibitor, partial curve, poor fit]"
COc1cccc(-n2nnnc2SCC(=O)Nc2ccc3c(c2)OCCO3)c1,inactive: 6.88%,–
O=C(O)Cc1sc(NC2CCCCC2)nc1-c1ccc(Cl)cc1,–,"inconclusive: 18.5 µM [inhibitor, single point]"
COc1ccc(C(=O)CC(Nc2ccc([N+](=O)[O-])cc2)c2ccc(Cl)cc2)cc1 (stereo not given),–,active: 9.28 µM
CC(C)(C)OC(=O)NCCCC[C@H](NC(=O)c1nc[nH]c1C(=O)NCc1ccc(CNC(=O)OC(C)(C)C)cc1)C(=O)OC(C)(C)C,–,active: 11.7 µM
Cc1cccc(CCNC(=O)C2CCC(CNc3c(N4CCCC4)c(=O)c3=O)CC2)c1 (stereo not given),–,active: 9.28 µM
CC/C(=N\NC(=O)c1c[nH]c2ccccc12)c1cccs1,–,active: 13.1 µM
Cc1ccc(-c2cc(=O)c3cc(C)ccc3[nH]2)cc1,–,"inconclusive: 11.7 µM [inhibitor, single point]"
CCOc1ccc(C2CC(c3c(O)c4ccccc4oc3=O)=NN2c2ccccc2)cc1OC (stereo not given),–,"inconclusive: 18.5 µM [inhibitor, single point]"
O=C(c1ccccc1)N1CCN=C1c1ccccc1,–,active: 11.7 µM
N#C/C(=C\c1ccc(-c2ccc([N+](=O)[O-])cc2Br)o1)C(=O)N1CCN(c2ccccc2)CC1,–,"inconclusive: 18.5 µM [inhibitor, single point]"
CCC(C)(C)C1CCC2(CC1)NC(=O)N(CC(=O)N(C)CC(=O)Nc1ccccc1C(F)(F)F)C2=O (stereo not given),–,"inconclusive: 11.7 µM [inhibitor, single point]"

Structure (SMILES),"activity change, negative = inhibition",Potency
C[C@@H]1CC=C[C@H]2[C@H]1C(=O)N(Cc1ccccc1)[C@H]2c1ccc(F)c(-c2ccc(N(C)C)cc2)c1,–,active: 11.7 µM
Oc1ccc(N=Nc2n[nH]c(-c3ccccc3)n2)cc1,–,"inconclusive: 2.94 µM [inhibitor, full curve, poor fit]"
Oc1c(N=NC(=S)Nc2ccccc2F)c2ccccc2n1Cc1ccc(F)cc1,–,"inconclusive: 18.5 µM [inhibitor, single point]"
COc1cc(/C=N/Nc2ccc([N+](=O)[O-])cn2)cc(OC)c1O,inactive: -3.32%,–
O=C(CC1SC(=Nc2ccc3c(c2)OCCO3)NC1=O)Nc1ccc(F)cc1F (stereo not given),–,"inconclusive: 10.4 µM [inhibitor, single point]"
CSc1nc(N)nc(C2CC2)n1,inactive: 37.3%,–
CCOc1ccc(-c2nc(S(=O)(=O)c3ccccc3)c(NC)o2)cc1,–,"inconclusive: 18.5 µM [inhibitor, single point]"
Cc1cc(C)n(C(=O)c2ccccc2[N+](=O)[O-])n1,–,"inconclusive: 13.1 µM [inhibitor, single point]"
CCOc1ccc(N2C(=O)C3CCCN3C2=O)cc1 (stereo not given),–,"inconclusive: 18.5 µM [inhibitor, single point]"
Cc1nc2c(-c3ccccc3)c(C)nn2c(C)c1CCC(=O)NCc1ccco1,inactive: -1.96%,–
COc1ccc(N2CC(O)(c3ccc(OC(F)F)cc3)[N+]3=C2CCCC3)cc1 (stereo not given),–,"inconclusive: 9.28 µM [inhibitor, partial curve, poor fit]"
COCc1cc(C)nc2sc3c(=O)n(-c4cccc5ccccc45)nnc3c12,–,"inconclusive: 11.7 µM [inhibitor, partial curve]"
O=C(COc1ccc(S(=O)(=O)N2CCOCC2)cc1)NCCc1ccccc1,inactive: 9.04%,–
Cc1cc(C(C)(C)C)c(O)c(C)c1CC1=NCCN1,–,"inconclusive: 9.28 µM [inhibitor, single point]"
CCN1CCN(C(=O)c2ccc(N3CC4CC(C3)c3cccc(=O)n3C4)c(NC(=O)c3cc(OC)cc(OC)c3)c2)CC1 (stereo not given),inactive: 0.349%,–
CCCN(CCC)CCCNC(=O)c1cn(CC)c2ccc(S(=O)(=O)N3CCc4ccccc4C3)cc2c1=O,–,"inconclusive: 18.5 µM [inhibitor, partial curve, poor fit]"
O=C(NCCc1cccc(Cl)c1)c1ccc2c(c1)OCO2,inactive: 3.18%,–
COc1ccc(N2CCN(C(=O)c3cn(Cc4ccccc4)nc3-c3cccnc3)CC2)cc1,–,active: 10.4 µM
O=C(NC(=S)Nc1ccc(N2CCOCC2)cc1)c1cccs1,inactive: 0%,–
COc1ccc(NS(=O)(=O)/C=C/c2ccc(OC)c(OC)c2)cc1,inactive: 12.6%,–
CCOC(=O)[C@@H]1[C@H]2COc3ccccc3[C@@H]2N2C(=O)N(c3ccc(F)cc3)C(=O)[C@@]12C,inactive: 34.6%,–
COc1cc2ccccc2cc1C(=O)N(CCN(C)C)c1nc2c(F)cccc2s1,–,"inconclusive: 18.5 µM [inhibitor, single point]"

# Look-ups from the results shown:
# In activity change, negative = inhibition, `Cc1nc2c(-c3ccccc3)c(C)nn2c(C)c1CCC(=O)NCc1ccco1` has inactive: -1.96%
# In Potency, `COc1ccc(N2CCN(C(=O)c3cn(Cc4ccccc4)nc3-c3cccnc3)CC2)cc1` has active: 10.4 µM
# In Potency, `CCCN(CCC)CCCNC(=O)c1cn(CC)c2ccc(S(=O)(=O)N3CCc4ccccc4C3)cc2c1=O` has inconclusive: 18.5 µM [inhibitor, partial curve, poor fit]
